From article PMC4695171
Results are given in words; binding and its absence hold for the method and conditions named. In cells and extracts the contact can be indirect. Binding calls can cover weak binding; strength is not graded here. For some assays here: Sequences can lack the tags named with a protein.

Legend:
[1] = molecular target: T1, Madcam1-FLAG (Mucosal vascular addressin cell adhesion molecule 1, C-terminal FLAG tag) (human) (UniProt Q13477); assay: co-IP; Madcam1-FLAG co-transfected with AKT-Myc into Bel-7402 cells; reciprocal co-IP
T1 sequence: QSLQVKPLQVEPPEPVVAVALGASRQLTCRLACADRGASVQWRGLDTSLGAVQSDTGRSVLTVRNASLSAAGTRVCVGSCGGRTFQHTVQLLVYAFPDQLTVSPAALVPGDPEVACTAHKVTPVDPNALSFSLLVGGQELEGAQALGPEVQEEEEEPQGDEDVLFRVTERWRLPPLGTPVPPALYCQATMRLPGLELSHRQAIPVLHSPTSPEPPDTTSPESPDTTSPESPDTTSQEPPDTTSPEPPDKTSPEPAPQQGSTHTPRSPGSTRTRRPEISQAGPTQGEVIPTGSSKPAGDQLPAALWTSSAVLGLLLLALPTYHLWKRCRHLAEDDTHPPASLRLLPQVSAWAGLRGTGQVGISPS

AKT-Myc [2] = assay: proximity ligation; Duolink in situ PLA on fixed Bel-7402 and SMMC-7721 cells co-transfected with AKT-Myc and Madcam1-FLAG; rabbit anti-Myc and mouse anti-FLAG
AKT-Myc [3] = assay: co-IP; Madcam1-FLAG co-transfected with AKT-Myc into Bel-7402 cells; reciprocal co-IP
[4] = molecular target: AKT, endogenous (human (endogenous in Bel-7402 and SMMC-7721)); assay: proximity ligation; Duolink in situ PLA on fixed Bel-7402 and SMMC-7721 cells, endogenous proteins; rabbit anti-AKT and mouse anti-Madcam1; controls with no antibody or only one antibody
[5] = molecular target: AKT, endogenous (human (endogenous in Bel-7402 and SMMC-7721)); assay: co-IP; endogenous AKT and Madcam1 in Bel-7402 cells; reciprocal co-IP with the indicated antibodies; control IgG as negative control

AKT-Myc
binding [1]: binds

B1: Madcam1-FLAG (Mucosal vascular addressin cell adhesion molecule 1, C-terminal FLAG tag) (protein, UniProt Q13477 19-382)
chain: QSLQVKPLQVEPPEPVVAVALGASRQLTCRLACADRGASVQWRGLDTSLGAVQSDTGRSVLTVRNASLSAAGTRVCVGSCGGRTFQHTVQLLVYAFPDQLTVSPAALVPGDPEVACTAHKVTPVDPNALSFSLLVGGQELEGAQALGPEVQEEEEEPQGDEDVLFRVTERWRLPPLGTPVPPALYCQATMRLPGLELSHRQAIPVLHSPTSPEPPDTTSPESPDTTSPESPDTTSQEPPDTTSPEPPDKTSPEPAPQQGSTHTPRSPGSTRTRRPEISQAGPTQGEVIPTGSSKPAGDQLPAALWTSSAVLGLLLLALPTYHLWKRCRHLAEDDTHPPASLRLLPQVSAWAGLRGTGQVGISPS
binding (AKT-Myc [2]): binds
binding (AKT-Myc [3]): binds

B2: Madcam1 (Mucosal vascular addressin cell adhesion molecule 1), endogenous (protein, UniProt Q13477 19-382)
chain: QSLQVKPLQVEPPEPVVAVALGASRQLTCRLACADRGASVQWRGLDTSLGAVQSDTGRSVLTVRNASLSAAGTRVCVGSCGGRTFQHTVQLLVYAFPDQLTVSPAALVPGDPEVACTAHKVTPVDPNALSFSLLVGGQELEGAQALGPEVQEEEEEPQGDEDVLFRVTERWRLPPLGTPVPPALYCQATMRLPGLELSHRQAIPVLHSPTSPEPPDTTSPESPDTTSPESPDTTSQEPPDTTSPEPPDKTSPEPAPQQGSTHTPRSPGSTRTRRPEISQAGPTQGEVIPTGSSKPAGDQLPAALWTSSAVLGLLLLALPTYHLWKRCRHLAEDDTHPPASLRLLPQVSAWAGLRGTGQVGISPS
binding [4]: binds
binding [5]: binds
